From patent US20100028340A1
These are yes or no findings as the source states them, for the method shown. Some entries that bind do so weakly or less than the wild type.

How the values were obtained:
[1] = biological target: recombinant rat RGM A (rat); experiment: direct ELISA on rRatRGMA
[2] = biological target: recombinant rat RGM A (rat); experiment: ELISA (data not shown)

binding [1]: binds
binding [2]: binds
B1: rat anti-human RGM A monoclonal antibody 5F9 (antibody, V domains shown)
VH: EVQLVESGGGLVQPGSSLKLSCVASGFTFSNYGMNWIRQAPKKGLEWIGMIYYDSSEKHYADSVKGRFTISRDNSKNTLYLEMNSLRSEDTAIYYCAKGTTPDYWGQGVMVTVSS
VL: DVVLTQTPVSLSVTLGDQASMSCRSSQSLEYSDGYTFLEWFLQKPGQSPQLLIYEVSNRFSGVPDRFIGSGSGTDFTLKISRVEPEDLGVYYCFQATHDPLTFGSGTKLEIKR
